Experimental data from PubChem BioAssay AID504467 (National Center for Advancing Translational Sciences (NCATS), 2011).
About 7,700 (2.3%) of roughly 330,000 compounds were called active. Inconclusive results, whose numbers are uncertain, are shown with a selection of clear calls. Calls come from the whole dose curve; as a rule, active = well fitted inhibition curve with a large enough effect; inconclusive = small, poorly fitted or top-dose-only effect, or effect the other way; inactive = flat fitted curve, though single readings scatter. Potencies beside an inconclusive call are fits to weak or partial responses and may not hold up.

Assay: qHTS screen for small molecules that inhibit ELG1-dependent DNA repair in human embryonic kidney (HEK293T) cells expressing luciferase-tagged ELG1; note: nearly all actives have a fitted effect of over 55% in size
Conditions: HEK293T ELG1-luciferase reporter, luminescence, 16 h, DNA damage induced by 5-fluorouridine; activity change, negative = inhibition: at 46.1 µM (top of the series)
How it was run: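 Luminescence from the luciferase reporter, measured 30 min after ONE-Glo reagent at room temperature, was the read-out. Beforehand, 2,000 cells per well were exposed for 16 hr at 37 °C to 5-fluorouridine together with compound or vehicle.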
% is set by controls: 0 for no effect and ±100 for the full control effect; potency is the fitted concentration of half-maximal effect.

With `CCOc1cccc(/C=C(/C#N)c2nc3ccccc3[nH]2)c1OCC(=O)O` as the compound, how does the Potency read?
Its Potency is inconclusive: 35.5 µM [activator, single point].

For `COc1ccc(CN(CC2CCCO2)S(=O)(=O)c2ccc(C(=O)O)cc2)cc1OC` (configuration not stated), which activity change, negative = inhibition is on record?
Its activity change, negative = inhibition is inconclusive: 106% [activator].

Which Potency does the source give for `CCN(CC)S(=O)(=O)c1cc(C(=O)Oc2cccc(-c3cnc4ccccc4n3)c2)ccc1Br` here?
Its Potency is inconclusive: 5.17 µM [activator, full curve].

Which Potency does the source give for `O=C(Nc1nnc(-c2ccc3c(c2)CCCC3)o1)C1COc2ccccc2O1` (configuration not stated) here?
The Potency was inconclusive: 14.6 µM [activator, single point].

With `Brc1cccc(-c2nnc(SCc3nc4ccccc4[nH]3)o2)c1` as the compound, how does the Potency read?
The Potency was “inactive”.

With `Cc1ccc(C)c(C(=O)OCC(=O)Nc2cccc(S(=O)(=O)N3CCCCC3)c2)c1` as the compound, how does the Potency read?
Its Potency is “inactive”.

With `COc1ccc(Nc2nnc(SCC(=O)NC3CCS(=O)(=O)C3)s2)cc1` (configuration not stated) as the compound, how does the Potency read?
The Potency was inconclusive: 20.6 µM [activator, partial curve].

Which Potency does the source give for `CCN(CC)C(=O)CSc1nc2ccccc2o1` here?
Its Potency is inconclusive: 25.9 µM [activator, single point].

For `O=C(CNc1ccccc1C(=O)O)c1ccccc1`, which Potency is on record?
Its Potency is inconclusive: 14.6 µM [activator, partial curve, poor fit].

For `CCN1C(=O)/C(=C/c2ccc(N3CCCC3)cc2)NC1=S`, which Potency is on record?
The Potency was inconclusive: 23.1 µM [inhibitor, partial curve].

With `Cc1cc2ccccn2c1C(=O)c1ccccc1F` as the compound, how does the Potency read?
Its Potency is “inactive”.

For `COc1cc(OC)c(NC(C)C(=O)NCc2ccccc2)cc1Cl` (configuration not stated), which Potency is on record?
Its Potency is “inactive”.

With `CN1C(=O)C(c2nnc(Nc3cccc4ccccc34)s2)C2CC1(C)Oc1ccccc12` (configuration not stated) as the compound, how does the Potency read?
The Potency was inconclusive: 23.1 µM [inhibitor, single point].

Which Potency does the source give for `COc1ccc(S(=O)(=O)N(C)C[C@@H]2Oc3ccc(NS(=O)(=O)c4cn(C)cn4)cc3C(=O)N([C@@H](C)CO)C[C@@H]2C)cc1` here?
Its Potency is inconclusive: 23.1 µM [activator, partial curve, poor fit].

For `Cn1c(=NC(=O)c2ccccc2[N+](=O)[O-])sc2cc(S(C)(=O)=O)ccc21`, which Potency is on record?
Its Potency is inconclusive: 0.82 µM [activator, full curve].

For `CCC1(c2ccc(F)cc2)NC(=O)N(CC(=O)Nc2cc(C)on2)C1=O` (configuration not stated), which Potency is on record?
Its Potency is “inactive”.

Which Potency does the source give for `COC(=O)N1C(=O)[C@@](CC(C)C)(c2ccccc2)N1C(=O)OC` here?
Its Potency is inconclusive: 29.1 µM [inhibitor, single point].

Which Potency does the source give for `CC(C)(C)c1ccc(S(=O)(=O)NCC(=O)Nc2ccc(-c3nc4ccccc4s3)cc2)cc1` here?
Its Potency is inconclusive: 18.4 µM [activator, partial curve].

Which Potency does the source give for `COCc1cc(C)nc2sc(C(=O)Nc3nccs3)c(N)c12` here?
The Potency was inconclusive: 4.61 µM [activator, full curve].

For `NS(=O)(=O)c1ccc(NCc2ccccc2OCc2ccc(F)cc2)cc1`, which Potency is on record?
The Potency was inconclusive: 23.1 µM [inhibitor, partial curve].

For `CCc1ccc(NC(=O)Nc2ccsc2C(=O)OC)cc1`, which Potency is on record?
Its Potency is inconclusive: 2.31 µM [activator, full curve].

Which Potency does the source give for `CCOC(=O)C1C(=O)OC(C)(C)C1C(C)C(=O)c1ccc(C)cc1C` (configuration not stated) here?
Its Potency is inconclusive: 29.1 µM [inhibitor, partial curve, poor fit].

For `CCCn1c(NC(=O)c2ccc([N+](=O)[O-])o2)nc2ccccc21`, which Potency is on record?
The Potency was inconclusive: 8.2 µM [inhibitor, partial curve, poor fit].

With `CCCC(=O)Nc1ccc(NC(=O)c2ccccc2F)cn1` as the compound, how does the Potency read?
The Potency was inconclusive: 16.4 µM [activator, partial curve].

Which Potency does the source give for `O=C(NC1CCCCC1)c1cccnc1C(=O)O` here?
The Potency was inconclusive: 20.6 µM [activator, partial curve, poor fit].

With `COc1cc2c(cc1OC)CN(S(=O)(=O)c1cccs1)CC2` as the compound, how does the Potency read?
Its Potency is “inactive”.

Which Potency does the source give for `NC(=O)C1CCN(C(=O)CN2CCCc3ccccc32)CC1` here?
Its Potency is inconclusive: 18.4 µM [activator, partial curve, poor fit].

For `CCOC(=O)Nc1nc(-c2ccc(F)cc2F)cs1`, which Potency is on record?
The Potency was inconclusive: 13 µM [activator, partial curve].

With `COc1cc(/C=C2\SC(=Nc3ccccc3OC)NC2=O)ccc1O` as the compound, how does the Potency read?
Its Potency is inconclusive: 13 µM [inhibitor, partial curve].

With `COc1ccc(C2c3ccc(O)cc3Oc3ncn4nc(-c5ccncc5)nc4c32)cc1OC` (configuration not stated) as the compound, how does the Potency read?
The Potency was inconclusive: 6.51 µM [inhibitor, single point].

For `COc1ccc(OC)c(Nc2nc(-c3sc(NC(=O)C(C)(C)C)nc3C)cs2)c1`, which Potency is on record?
Its Potency is inconclusive: 29.1 µM [inhibitor, single point].

Which Potency does the source give for `CCOc1ccc(N(C(C)C(=O)N2CCCC2)S(C)(=O)=O)cc1` (configuration not stated) here?
The Potency was “inactive”.

For `O=C(NNC1=NS(=O)(=O)c2ccccc21)c1ccccc1Cl`, which Potency is on record?
Its Potency is inconclusive: 20.6 µM [activator, partial curve, poor fit].

Which Potency does the source give for `O=C(Nc1ccccc1C(=O)N1CCN(CCO)CC1)c1cccc([N+](=O)[O-])c1` here?
Its Potency is inconclusive: 7.3 µM [inhibitor, single point].

With `Nc1scc2c(C(=O)N/N=C/c3ccc(Cl)cc3)nn(-c3ccccc3)c(=O)c12` as the compound, how does the Potency read?
Its Potency is inconclusive: 23.1 µM [inhibitor, partial curve].

Which Potency does the source give for `CCC(c1nnc(SCc2nc3ccccc3s2)n1Cc1ccccc1)N(C)C` (configuration not stated) here?
The Potency was inconclusive: 13 µM [activator, partial curve].

Which Potency does the source give for `O=C(Nc1ccccc1Cl)c1cccc(COc2cc(Cl)ccc2Cl)c1` here?
Its Potency is inconclusive: 16.4 µM [activator, partial curve].

With `CC(C)(C)c1ccc(Cn2nnc3c(=O)[nH]c(C4CCN(C(=O)c5ccco5)CC4)nc32)cc1` as the compound, how does the Potency read?
Its Potency is active: 10.3 µM.

Which Potency does the source give for `O=C(O)c1ccc(-n2c(=O)c3ccccc3c3ccccc3c2=O)cc1` here?
The Potency was inconclusive: 4.61 µM [activator, full curve, poor fit].

Which Potency does the source give for `C=CCOCCn1[nH]c2ccccc2c1=O` here?
The Potency was “inactive”.

With `O=C(N/N=C\c1cn[nH]c1-c1ccccc1)c1ccc([N+](=O)[O-])cc1` as the compound, how does the Potency read?
The Potency was “inactive”.

Which Potency does the source give for `O=C(NCc1ccccc1)C1CCCN1S(=O)(=O)c1ccc(Cl)cc1` (configuration not stated) here?
Its Potency is “inactive”.
